# Data from the supplement of paper PMC10077471.
# In all, about 1,900 compounds were measured (“excess over highest single agent (ExcessHSA) synergy score, 6x6 matrix”: median about -83, lowest 2% from about -370 on). This is one part of the list.
# Test system: NCI-H446
# Experiment: excess over highest single agent (ExcessHSA) synergy score, 6x6 matrix; higher = less synergy (more negative = stronger synergy)
# Details: 72 h; CellTiter-Glo viability
row,SMILES,excess over highest single agent
1,CNCCCC12CCC(c3ccccc31)c1ccccc12 + Cc1sc2c(c1C)C(c1ccc(Cl)cc1)=N[C@@H](CC(=O)OC(C)(C)C)c1nnc(C)n1-2 [NCGC00250412-19],-71.9
2,CCc1c(O)cc(O)c(C(=O)c2ccc(OCCN3CCOCC3)c(OC)c2)c1CC(=O)N(CCOC)CCOC + Cc1sc2c(c1C)C(c1ccc(Cl)cc1)=N[C@@H](CC(=O)OC(C)(C)C)c1nnc(C)n1-2 [NCGC00250412-19],-176
3,COc1cc2c(Nc3ccc(Cl)c(Cl)c3F)ncnc2cc1OC[C@@H]1C[C@@H]2CN(C)C[C@@H]2C1 + Cc1sc2c(c1C)C(c1ccc(Cl)cc1)=N[C@@H](CC(=O)OC(C)(C)C)c1nnc(C)n1-2 [NCGC00250412-19],-234
4,CN(C)CCOC(c1ccccc1)c1ccccc1 + Cc1sc2c(c1C)C(c1ccc(Cl)cc1)=N[C@@H](CC(=O)OC(C)(C)C)c1nnc(C)n1-2 [NCGC00250412-19],-287
5,CC(=O)[C@H]1CC[C@H]2[C@@H]3CCC4=CC(=O)CC[C@]4(C)[C@H]3CC[C@]12C + Cc1sc2c(c1C)C(c1ccc(Cl)cc1)=N[C@@H](CC(=O)OC(C)(C)C)c1nnc(C)n1-2 [NCGC00250412-19],174
6,Cn1cc(CNCC2CCN(c3ncc(C(=O)NO)cn3)CC2)c2ccccc21 + Cc1sc2c(c1C)C(c1ccc(Cl)cc1)=N[C@@H](CC(=O)OC(C)(C)C)c1nnc(C)n1-2 [NCGC00250412-19],-155
7,OC(CN1CCC(Cc2ccc(F)cc2)CC1)c1ccc(Cl)cc1 (stereo not given) + Cc1sc2c(c1C)C(c1ccc(Cl)cc1)=N[C@@H](CC(=O)OC(C)(C)C)c1nnc(C)n1-2 [NCGC00250412-19],-47.9
8,CC[C@@]1(O)C(=O)OCc2c1cc1n(c2=O)Cc2cc3ccccc3nc2-1 + Cc1sc2c(c1C)C(c1ccc(Cl)cc1)=N[C@@H](CC(=O)OC(C)(C)C)c1nnc(C)n1-2 [NCGC00250412-19],-249
9,CO/C1=C\C(C)=C\[C@@H](C)[C@@H](O)[C@@H](C)C/C(C)=C/C=C/[C@H](OC)[C@@H]([C@@H](C)[C@@H](O)[C@H](C)[C@@]2(O)C[C@@H](O)[C@H](C)[C@@H](C(C)C)O2)OC1=O + Cc1sc2c(c1C)C(c1ccc(Cl)cc1)=N[C@@H](CC(=O)OC(C)(C)C)c1nnc(C)n1-2 [NCGC00250412-19],-118
10,CC(NC(=O)Cc1cc(F)cc(F)c1)C(=O)NC(C(=O)OC(C)(C)C)c1ccccc1 (stereo not given) + Cc1sc2c(c1C)C(c1ccc(Cl)cc1)=N[C@@H](CC(=O)OC(C)(C)C)c1nnc(C)n1-2 [NCGC00250412-19],-217
11,C[C@]12CC[C@@H]3c4ccc(O)cc4CC[C@H]3[C@@H]1CC[C@@H]2O + Cc1sc2c(c1C)C(c1ccc(Cl)cc1)=N[C@@H](CC(=O)OC(C)(C)C)c1nnc(C)n1-2 [NCGC00250412-19],-54.9
12,CN(C)c1cc(NC(=O)CNC(C)(C)C)c(O)c2c1C[C@H]1C[C@H]3[C@H](N(C)C)C(=O)C(C(N)=O)=C(O)[C@@]3(O)C(=O)C1=C2O + Cc1sc2c(c1C)C(c1ccc(Cl)cc1)=N[C@@H](CC(=O)OC(C)(C)C)c1nnc(C)n1-2 [NCGC00250412-19],-339
13,CCNC(=O)Nc1ccc(-c2nc3c(c(N4CCOC[C@@H]4C)n2)CCN(C2COC2)C3)cc1 + Cc1sc2c(c1C)C(c1ccc(Cl)cc1)=N[C@@H](CC(=O)OC(C)(C)C)c1nnc(C)n1-2 [NCGC00250412-19],-139
14,C[C@H](NC(=O)/C(C#N)=C/c1cccc(Br)n1)c1ccccc1 + Cc1sc2c(c1C)C(c1ccc(Cl)cc1)=N[C@@H](CC(=O)OC(C)(C)C)c1nnc(C)n1-2 [NCGC00250412-19],-265
15,O=C(O)C(=O)Nc1cccc(-c2nnn[nH]2)c1 + Cc1sc2c(c1C)C(c1ccc(Cl)cc1)=N[C@@H](CC(=O)OC(C)(C)C)c1nnc(C)n1-2 [NCGC00250412-19],42.8
16,CC1CNc2c(cccc2S(=O)(=O)N[C@@H](CCCNC(=N)N)C(=O)N2CC[C@@H](C)C[C@@H]2C(=O)O)C1 (stereo not given in full) + Cc1sc2c(c1C)C(c1ccc(Cl)cc1)=N[C@@H](CC(=O)OC(C)(C)C)c1nnc(C)n1-2 [NCGC00250412-19],-42
17,CO[C@H]1C[C@@H]2CC[C@@H](C)[C@@](O)(O2)C(=O)C(=O)N2CCCC[C@H]2C(=O)O[C@H]([C@H](C)C[C@@H]2CC[C@@H](OCCO)[C@H](OC)C2)CC(=O)[C@H](C)/C=C(\C)[C@@H](O)[C@@H](OC)C(=O)[C@H](C)C[C@H](C)/C=C/C=C/C=C/1C + Cc1sc2c(c1C)C(c1ccc(Cl)cc1)=N[C@@H](CC(=O)OC(C)(C)C)c1nnc(C)n1-2 [NCGC00250412-19],-598
18,Fc1ccc(Cl)cc1-c1nc(Nc2ccncc2)c2nccnc2n1 + Cc1sc2c(c1C)C(c1ccc(Cl)cc1)=N[C@@H](CC(=O)OC(C)(C)C)c1nnc(C)n1-2 [NCGC00250412-19],77.7

row,SMILES,excess over highest single agent
1,Nc1ccn([C@@H]2O[C@H](CO)[C@@H](O)C2(F)F)c(=O)n1 + Cc1sc2c(c1C)C(c1ccc(Cl)cc1)=N[C@@H](CC(=O)OC(C)(C)C)c1nnc(C)n1-2 [NCGC00250412-19],-379
2,COc1ccccc1N1CCN(CCN(C(=O)C2CCCCC2)c2ccccn2)CC1 + Cc1sc2c(c1C)C(c1ccc(Cl)cc1)=N[C@@H](CC(=O)OC(C)(C)C)c1nnc(C)n1-2 [NCGC00250412-19],-78.4
3,CN1CCN(c2ccc([N+](=O)[O-])c3no[n+]([O-])c23)CC1 + Cc1sc2c(c1C)C(c1ccc(Cl)cc1)=N[C@@H](CC(=O)OC(C)(C)C)c1nnc(C)n1-2 [NCGC00250412-19],59.7
4,CC(=O)O[C@@]12CO[C@@H]1C[C@H](O)[C@@]1(C)C(=O)[C@H](O)C3=C(C)[C@@H](OC(=O)[C@H](O)[C@@H](NC(=O)OC(C)(C)C)c4ccccc4)C[C@@](O)([C@@H](OC(=O)c4ccccc4)[C@H]21)C3(C)C + Cc1sc2c(c1C)C(c1ccc(Cl)cc1)=N[C@@H](CC(=O)OC(C)(C)C)c1nnc(C)n1-2 [NCGC00250412-19],-135
5,O=C(c1ccc(Nc2nccc(-c3cc4ccccc4s3)n2)cc1)N1CCC(N2CCCC2)CC1 + Cc1sc2c(c1C)C(c1ccc(Cl)cc1)=N[C@@H](CC(=O)OC(C)(C)C)c1nnc(C)n1-2 [NCGC00250412-19],-181
6,Nc1ncnc2c1ncn2[C@@H]1O[C@H](CO)[C@@H](O)[C@H]1O + Cc1sc2c(c1C)C(c1ccc(Cl)cc1)=N[C@@H](CC(=O)OC(C)(C)C)c1nnc(C)n1-2 [NCGC00250412-19],-247
7,C[C@@H](NC(=O)c1ncnc(N)c1Cl)c1ncc(C(=O)Nc2cc(C(F)(F)F)c(Cl)cn2)s1 + Cc1sc2c(c1C)C(c1ccc(Cl)cc1)=N[C@@H](CC(=O)OC(C)(C)C)c1nnc(C)n1-2 [NCGC00250412-19],8.97
8,O=C(O)C(O)Cc1ccc(O)c(O)c1 (stereo not given) + Cc1sc2c(c1C)C(c1ccc(Cl)cc1)=N[C@@H](CC(=O)OC(C)(C)C)c1nnc(C)n1-2 [NCGC00250412-19],-9.7
9,CC1(C)CCC(C)(C)c2cc(NC(=O)c3ccc(C(=O)O)cc3)ccc21 + Cc1sc2c(c1C)C(c1ccc(Cl)cc1)=N[C@@H](CC(=O)OC(C)(C)C)c1nnc(C)n1-2 [NCGC00250412-19],-132
10,N[C@@H](Cc1cc(I)c(Oc2cc(I)c(O)c(I)c2)c(I)c1)C(=O)O + Cc1sc2c(c1C)C(c1ccc(Cl)cc1)=N[C@@H](CC(=O)OC(C)(C)C)c1nnc(C)n1-2 [NCGC00250412-19],-111
11,CCNC(=O)C[C@@H]1N=C(c2ccc(Cl)cc2)c2cc(OC)ccc2-n2c(C)nnc21 + Cc1sc2c(c1C)C(c1ccc(Cl)cc1)=N[C@@H](CC(=O)OC(C)(C)C)c1nnc(C)n1-2 [NCGC00250412-19],88.3
12,CCCCCCCCCC(=O)N[C@@H](Cc1c[nH]c2ccccc12)C(=O)N[C@@H](CC(N)=O)C(=O)N[C@@H](CC(=O)O)C(=O)N[C@@H]1C(=O)NCC(=O)N[C@@H](CCCN)C(=O)N[C@@H](CC(=O)O)C(=O)N[C@H](C)C(=O)N[C@@H](CC(=O)O)C(=O)NCC(=O)N[C@H](CO)C(=O)N[C@@H]([C@H](C)CC(=O)O)C(=O)N[C@@H](CC(=O)c2ccccc2N)C(=O)O[C@@H]1C + Cc1sc2c(c1C)C(c1ccc(Cl)cc1)=N[C@@H](CC(=O)OC(C)(C)C)c1nnc(C)n1-2 [NCGC00250412-19],-103
13,COc1ccc(S(=O)(=O)Nc2cc(-c3c(O)ccc4ccccc34)c(O)c3ccccc23)cc1 + Cc1sc2c(c1C)C(c1ccc(Cl)cc1)=N[C@@H](CC(=O)OC(C)(C)C)c1nnc(C)n1-2 [NCGC00250412-19],-69.5
14,Nc1cccc2c1C(=O)N(C1CCC(=O)NC1=O)C2=O (stereo not given) + Cc1sc2c(c1C)C(c1ccc(Cl)cc1)=N[C@@H](CC(=O)OC(C)(C)C)c1nnc(C)n1-2 [NCGC00250412-19],-176
15,COc1cc(C)c(Sc2cnc(NC(=O)c3ccc(CNC(C)C(C)(C)C)cc3)s2)cc1C(=O)N1CCN(C(C)=O)CC1 (stereo not given) + Cc1sc2c(c1C)C(c1ccc(Cl)cc1)=N[C@@H](CC(=O)OC(C)(C)C)c1nnc(C)n1-2 [NCGC00250412-19],-309
16,CC(C)n1nc(-c2ccc3oc(N)nc3c2)c2c(N)ncnc21 + Cc1sc2c(c1C)C(c1ccc(Cl)cc1)=N[C@@H](CC(=O)OC(C)(C)C)c1nnc(C)n1-2 [NCGC00250412-19],-212
17,N[C@@H](Cc1c[nH]c2ccc(O)cc12)C(=O)O + Cc1sc2c(c1C)C(c1ccc(Cl)cc1)=N[C@@H](CC(=O)OC(C)(C)C)c1nnc(C)n1-2 [NCGC00250412-19],-48.2

# Pulled one by one from the entries so far, two records:
row,SMILES,excess over highest single agent
15,O=C(O)C(=O)Nc1cccc(-c2nnn[nH]2)c1 + Cc1sc2c(c1C)C(c1ccc(Cl)cc1)=N[C@@H](CC(=O)OC(C)(C)C)c1nnc(C)n1-2 [NCGC00250412-19],42.8
18,Fc1ccc(Cl)cc1-c1nc(Nc2ccncc2)c2nccnc2n1 + Cc1sc2c(c1C)C(c1ccc(Cl)cc1)=N[C@@H](CC(=O)OC(C)(C)C)c1nnc(C)n1-2 [NCGC00250412-19],77.7
